According to patent publication US20230277625A1:
Results are given in words; binding and its absence hold for the method and conditions named. Some entries that bind do so weakly or less than the wild type.

T1: Mouse IL-18BP (amino acids 31-194), biotinylated (mouse) (UniProt Q9Z0M9)
T1 sequence (chain, biotin on the AviTag (BirA ligase)): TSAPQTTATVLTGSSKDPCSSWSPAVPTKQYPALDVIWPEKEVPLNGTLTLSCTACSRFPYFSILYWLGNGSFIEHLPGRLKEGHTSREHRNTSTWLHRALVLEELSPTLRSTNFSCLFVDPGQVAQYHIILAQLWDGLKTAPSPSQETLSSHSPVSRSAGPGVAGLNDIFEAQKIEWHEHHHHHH

T2: Mouse IL-18Rα ectodomain (amino acids 19-329), biotinylated (mouse) (UniProt Q61098)
T2 sequence (chain, biotin on the AviTag (BirA ligase)): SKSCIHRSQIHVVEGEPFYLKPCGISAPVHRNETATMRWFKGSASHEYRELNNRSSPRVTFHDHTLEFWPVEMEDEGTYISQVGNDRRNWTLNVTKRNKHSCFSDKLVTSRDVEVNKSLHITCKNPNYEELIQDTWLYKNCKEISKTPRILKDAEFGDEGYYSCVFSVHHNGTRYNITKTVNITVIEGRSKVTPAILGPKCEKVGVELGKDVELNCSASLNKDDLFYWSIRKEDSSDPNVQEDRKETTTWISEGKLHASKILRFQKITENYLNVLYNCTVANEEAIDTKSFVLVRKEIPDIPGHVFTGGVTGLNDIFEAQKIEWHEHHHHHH


Columns and labels:
[1] = target: T1, Mouse IL-18BP (amino acids 31-194), biotinylated (mouse); experiment: on-yeast binding isotherm (flow cytometry): yeast-displayed murine IL-18 variant titrated with mIL-18BP, % max
[2] = target: T2, Mouse IL-18Rα ectodomain (amino acids 19-329), biotinylated (mouse); experiment: on-yeast binding isotherm (flow cytometry): yeast-displayed murine IL-18 variant titrated with mIL-18Rα, % max
[3] = target: T2, Mouse IL-18Rα ectodomain (amino acids 19-329), biotinylated (mouse); experiment: on-yeast binding isotherm (flow cytometry), FIG. 11A
[4] = target: T2, Mouse IL-18Rα ectodomain (amino acids 19-329), biotinylated (mouse); experiment: yeast binding isotherms and SPR; members per FIG. 11A legend
[5] = target: T1, Mouse IL-18BP (amino acids 31-194), biotinylated (mouse); experiment: SPR (Biacore T100); SPR; no binding detected
[6] = target: T1, Mouse IL-18BP (amino acids 31-194), biotinylated (mouse); experiment: on-yeast binding isotherm (flow cytometry); on-yeast isotherm; no binding detected

| binding [1] | binding [2] | binding [3] | binding [4] | Binder | binding [5] | binding [6] |
| --- | --- | --- | --- | --- | --- | --- |
| binds | binds | binds | – | Mouse Interleukin-18 (mature form), wild type (ligand) NFGRLHCTTAVIRNINDQVLFVDKRQPVFEDMTDIDQSASEPQTRLIIYMYKDSEVRGLAVTLSVKDSKMSTLSCKNKIISFEEMDPPENIDDIQSDLIFFQKRVPGHNKMEFESSLYEGHFLACQKEDDAFKLILKKKDENGDKSVMFTLTNLHQS | – | – |
| – | binds | binds | binds | SEQ ID NO: 67 (murine DR-IL-18 variant mB1) (ligand) HFGRLHCTTAVIRNINDQVLFVDKRQPVFEDMTDIDQSASEPQTRLIIYGYADSDARAKAVTLSVKDSKMSTLSCKNKIISFEEMDPPENIDDIQSDLIFFQKSVPGHNKMEFESSLYEGHFLACQKEDDAFKLILKKKDENGDKSVMFTVTNLHQS | – | – |
| – | binds | binds | binds | SEQ ID NO: 60 (murine DR-IL-18 variant mCS1) (ligand) NFGRLHCTTAVIRNINDQVLFVDKRQPVFEDMTDIDQSASEPQTRLIIYGYADSRVRGKAVTLSVKDSKMSTLSCKNKIISFEEMDPPENIDDIQSDLIFFQKRVPGHNKMEFESSLYEGHFLACQKEDDAFKLILKKKDENGDKSVMFTLTNLHQS | – | – |
| – | binds | binds | binds | SEQ ID NO: 61 (murine DR-IL-18 variant mCS2) (ligand) HFGRLHCTTAVIRNINDQVLFVDKRQPVFEDMTDIDQSASEPQTRLIIYAYGDSRARGKAVTLSVKDSKMSTLSCKNKIISFEEMDPPENIDDIQSDLIFFQKRVPGHNKMEFESSLYEGHFLACQKEDDAFKLILKKKDENGDKSVMFTLTNLHQS | – | – |
| – | binds | binds | binds | SEQ ID NO: 70 (murine DR-IL-18 variant mA7) (ligand) YFGRLHCTTAVIRNINDQVLFVDKRQPVFEDMTDIDQSASEPQTRLIIYAYGDNRVRGKAVTLSVKDSKMSTLSCKNKIISFEEMDPPENIDDIQSDLIFFQKRVPGHNKMEFESSLYEGHFLACQKEDDAFKLILKKKDENGDKSVMFTLTNLHQS | – | – |
| – | binds | binds | binds | SEQ ID NO: 62 (murine DR-IL-18 variant mC1) (ligand) NFGRLHCTTAVIRNINDQVLFVDKRQPVFEDMTDIDQSASEPQTRLIIYAYVDRRLRGKAVTLSVKDSKMSTLSCKNKIISFEEMDPPENIDDIQSDLIFFQKKVPGHNKMEFESSLYEGHFLACQKEDDAFKLILKKKDENGDKSVMFTLTNLHQS | – | – |
| no binding (tested: 10^-6 M) | binds | binds | binds | SEQ ID NO: 64 (murine DR-IL-18 variant mE8) (ligand) NFGRLHCTTAVIRNINDQVLFVDKRQPVFEDMTDIDQSASEPQTRLIIYVYTDGRRRGKAVTLSVKDSKMSTLSCKNKIISFEEMDPPENIDDIQSDLIFFQKKVPGHDKMEFESSLYEGHFLACQKEDDAFKLILKKKDENGDKSVMFTLTNLHQS | no binding (tested: 30 µM used for ratio calculations) | no binding (tested: 10 µM used for ratio calculations) |
